Results are given in words; binding and its absence hold for the method and conditions named. Binding seen in cells or lysates may run through a third protein. Some entries that bind do so weakly or less than the wild type. Where a sequence is shown, tags or fusion partners need not be part of it.
Target: T1, Epstein-Barr virus BBRF2 protein, HA-tagged (Epstein-Barr virus) (UniProt P29882)
T1 sequence: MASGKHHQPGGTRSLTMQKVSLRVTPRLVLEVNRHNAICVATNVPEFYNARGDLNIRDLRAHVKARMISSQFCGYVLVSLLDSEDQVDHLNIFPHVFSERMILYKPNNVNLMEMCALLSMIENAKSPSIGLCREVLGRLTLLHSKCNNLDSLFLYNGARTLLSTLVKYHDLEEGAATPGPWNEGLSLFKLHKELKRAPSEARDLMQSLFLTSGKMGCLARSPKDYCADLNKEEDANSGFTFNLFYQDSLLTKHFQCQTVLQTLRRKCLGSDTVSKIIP
Test: co-IP; HEK293T cells cotransfected with expression plasmids; lysates after 24 h; immunoprecipitation with anti-HA antibody and G-Sepharose at 4 °C, then immunoblotting

B1: Epstein-Barr virus tegument protein BGLF2 (protein, UniProt P0CK53 1-336)
chain: MASAANSSREQLRKFLNKECLWVLSDASTPQMKVYTATTAVSAVYVPQIAGPPKTYMNVTLIVLKPKKKPTYVTVYINGTLATVARPEVLFTKAVQGPHSLTLMYFGVFSDAVGEAVPVEIRGNPVVTCTDLTTAHVFTTSTAVKTVEELQDITPSEIIPLGRGGAWYAEGALYMFFVNMDMLMCCPNMPTFPSLTHFINLLTRCDNGECVTCYGAGAHVNILRGWTEDDSPGTSGTCPCLLPCTALNNDYVPITGHRALLGLMFKPEDAPFVVGLRFNPPKMHPDMSRVLQGVLANGKEVPCTAQPWTLLRFSDLYSRAMLYNCQVLKRQVLHSY
B1 was tested, and the binding was “binds”.

Reference: paper PMC6955869
